Here are results for 42 sequences from paper PMC7819943, “Rice protein-binding microarrays: a tool to detect cis-acting elements near promoter regions in rice”.

Chains of the proteins cited; added tags and fusions are not shown.
UniProt Q0JBA9, entry or part of it: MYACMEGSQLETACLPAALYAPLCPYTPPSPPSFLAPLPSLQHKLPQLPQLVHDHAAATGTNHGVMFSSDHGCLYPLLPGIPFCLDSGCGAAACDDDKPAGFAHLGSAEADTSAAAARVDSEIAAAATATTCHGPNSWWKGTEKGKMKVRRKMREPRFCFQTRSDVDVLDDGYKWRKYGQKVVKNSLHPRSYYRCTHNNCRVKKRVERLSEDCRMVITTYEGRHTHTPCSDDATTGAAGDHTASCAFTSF

This is one part of the list.

In this assay the target is OsWRKY34 (Oryza sativa, UniProt Q0JBA9 1-250). The experiment in a line: protein-binding microarray (RPBM); PBS, 2% BSA, 51.3 ng/ul salmon testes DNA, 50 uM zinc acetate, 200 nM TF, 25 C, 1 h; high values mean tight binding. The note with it: protein: recombinant; tags: N-terminal polyhistidine and DsRed monomer fusion (pET32a); label: CyDye5-dUTP incorporated in the synthesized complementary strand; 3' TTTTT single-stranded linker to array surface; dsDNA, one strand shown. The procedure, abridged: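 In PBS with 2% BSA, salmon testes DNA and 50 µM zinc acetate, 200 nM protein was incubated on a custom Agilent array at 25 °C for 1 h and then washed off. The array had been made double-stranded by primer extension with Cy5-dUTP and blocked with 2% BSA. The proteins were transcription factors fused N-terminally to polyhistidine and DsRed, expressed in E. coli BL21-CodonPlus and purified on Ni–NTA. The binding signal is per-feature fluorescence intensity (arbitrary units) from an Axon 4000B scanner.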
As to “CTCCCCACTGGCCGCCCTACATTCAGAGGTAGAGAAGAGTCGGAGTCACCTAGTGCAG”, the binding signal is 8290 fluorescence intensity (a.u.). For “TCTTCCATTGGCTGGGGCGTCGGAGTCGGCTGACTCTTCCCGGAGTCACCTAGTGCAG” the value was 9680 fluorescence intensity (a.u.). For “CTAATATTCCTTATTTTTAATTCCGAATTTCAGTTATTTCCGGAGTCACCTAGTGCAG” the value was 8490 fluorescence intensity (a.u.).

With “TTTCACAATGTAAGTCATTTTAGCATTTCCTACATTTATACGGAGTCACCTAGTGCAG”, the binding signal was 9300 fluorescence intensity (a.u.). For “TATATGATGGTTGTGCACTACTAGCTTTGCAAGGGAGGGGCGGAGTCACCTAGTGCAG” the value was 9390 fluorescence intensity (a.u.). For “ACTTTTTTTATGTAATGTTTGACCACTCATCTTATTAGAACGGAGTCACCTAGTGCAG” the value was 10800 fluorescence intensity (a.u.); for “CAAGCTCATATCTCGCATGGAATTTTTTGTTTTTCTGCATCGGAGTCACCTAGTGCAG”, 8820 fluorescence intensity (a.u.). For “GTTCCTTTCATTTTTTCTCCTCTTACTCTCTCTCTTCTCACGGAGTCACCTAGTGCAG” the value was 8950 fluorescence intensity (a.u.). Consider “GTCTTTTGGTGGGTGGGAAATCACTTCCATTTCCCATTAGCGGAGTCACCTAGTGCAG”, for which the binding signal was 11300 fluorescence intensity (a.u.). For “TGACTACAACCGCGTTTTCATTGTTTTTTTTTTTTTGACCCGGAGTCACCTAGTGCAG” the value was 8750 fluorescence intensity (a.u.). For “GTAATTTCCATGGTCACAGTCACAGCGGACTCTGTTTCGACGGAGTCACCTAGTGCAG” the value was 8930 fluorescence intensity (a.u.); for “TGGATTGTGTTGAGCTGGAAACTGCTAGCTGGTTAATACACGGAGTCACCTAGTGCAG”, 8330 fluorescence intensity (a.u.); for “ATTTGTTCACTCGTTGACTGGCTTTGGCGCTTTATTTATGCGGAGTCACCTAGTGCAG”, 12000 fluorescence intensity (a.u.). For “TCCGCCTCCCCTCGCGCCGCCGCCGCCGCCGCGTTGACCTCGGAGTCACCTAGTGCAG” the value was 11400 fluorescence intensity (a.u.). Regarding “GAATAATCTATTTACACTTGTACTTTGAATATTTTTTTGTCGGAGTCACCTAGTGCAG”, the binding signal was 8240 fluorescence intensity (a.u.).

On to “GGTCAAACATTAGACAAAAAGTCAACGACGTCATGCATTACGGAGTCACCTAGTGCAG”, for which the binding signal is 15000 fluorescence intensity (a.u.). For “CTACTGTGTCCTTTTCGTTGGCAACCATGGTTTCATTTTTCGGAGTCACCTAGTGCAG” the value was 9780 fluorescence intensity (a.u.); for “TGGTCTCGTCTCCTCGTCTTCTCGCCGCCGCCGCGAGCGGCGGAGTCACCTAGTGCAG”, 11300 fluorescence intensity (a.u.); for “CCCGCCTCGCCGCGCGCCGATGTTGCCGTCTCCCTGCGCGCGGAGTCACCTAGTGCAG”, 8100 fluorescence intensity (a.u.).

As for “GCAGCACAATGTCCATCGCATCGCTCGTCCTCCTGCGGTCCGGAGTCACCTAGTGCAG”, the binding signal was 9700 fluorescence intensity (a.u.). For “CCTACTACTACTACAGCATCATCTACTACACACATGACACCGGAGTCACCTAGTGCAG” the value was 8490 fluorescence intensity (a.u.). “GCTATTTTTTCTCAGAATCTACATTATTGTATTTGTATTTCGGAGTCACCTAGTGCAG”: the binding signal was 9460 fluorescence intensity (a.u.).

As for “AAATGGGGTGCTTTGTGTAAGTAGGTCCGCTTGTCTTGAACGGAGTCACCTAGTGCAG”, the binding signal is 8660 fluorescence intensity (a.u.). For “TTCAGTTTTCACTTCATTATTTTGCCGTTTCTCTTTGACCCGGAGTCACCTAGTGCAG” the value was 12300 fluorescence intensity (a.u.). For “AGGCTACACTATTAAACTTGCTCTTCTCAAGCTACTTCAACGGAGTCACCTAGTGCAG” the value was 8190 fluorescence intensity (a.u.). Take “CTTTTATCTTTTTCCGCTGCATTTGTAATCTTTTATATTTCGGAGTCACCTAGTGCAG”: the binding signal is 13400 fluorescence intensity (a.u.).

Consider “TCCTCTCCTCTCTTCTCTTCTCGACCTCCACTCCTCTCCACGGAGTCACCTAGTGCAG”, for which the binding signal is 11700 fluorescence intensity (a.u.).

On to “TGAGGGCTGCTGTGCTATTCTTCCTGGACATCTCTGGGTCCGGAGTCACCTAGTGCAG”, for which the binding signal was 8650 fluorescence intensity (a.u.). For “ACTTCAAATGTGTGTCCTTATATCCGAGGGGCGGGCCCACCGGAGTCACCTAGTGCAG” the value was 9320 fluorescence intensity (a.u.); for “TCTCCACATGCACCATCTTATCTCAACTCCTTAGAATTCCCGGAGTCACCTAGTGCAG”, 8920 fluorescence intensity (a.u.); for “CATCAATCGCTTTTGTTATTCCAGCGAGTTTTTGGGTTCTCGGAGTCACCTAGTGCAG”, 11100 fluorescence intensity (a.u.). For “GCACTCATCACTCATCAGAGCTCCACCAACCCACCACAAACGGAGTCACCTAGTGCAG” the value was 11700 fluorescence intensity (a.u.).

Regarding “TTAATCCATTCCACTTTACTCCAGCCAATCCTGGTTCCCGCGGAGTCACCTAGTGCAG”, the binding signal is 8360 fluorescence intensity (a.u.).

Take “TGTCCTATCCAGCCGCCCTATGTCAGCCACATGCCAGATGCGGAGTCACCTAGTGCAG”: the binding signal is 8110 fluorescence intensity (a.u.). For “TTTCTTTCAATATGGCATTAGTTGTCTTGCTGAGTTGGTTCGGAGTCACCTAGTGCAG”, the binding signal was 8420 fluorescence intensity (a.u.). For “GCCTCCACACACGCATACCTATGGCTGTCCCGGCCACAGCCGGAGTCACCTAGTGCAG” the value was 10800 fluorescence intensity (a.u.); for “TTCCAACAGTTGATATCGTGTTTTAAGGGTTCATCTTCTGCGGAGTCACCTAGTGCAG”, 8390 fluorescence intensity (a.u.).

Turning to “CGCCGGCCTCCCACACCATTGGTGCTATTGCGGCCGCCCCCGGAGTCACCTAGTGCAG”, the binding signal is 8300 fluorescence intensity (a.u.).

For the sequence “GTCCGGTCCACTCGCCAGTCGCCACCACGAATTCCACCCCCGGAGTCACCTAGTGCAG”, the binding signal was 11900 fluorescence intensity (a.u.). As to “AGCGCTCGTGCATGGATGGTTTGGTTGCATGTTTTTTCACCGGAGTCACCTAGTGCAG”, the binding signal is 10500 fluorescence intensity (a.u.).

Turning to “GTTCGTATGGTCACACGGTGTGCGTATATATGTCTCCTATCGGAGTCACCTAGTGCAG”, the binding signal is 8290 fluorescence intensity (a.u.). For “CACCGTTGACTTTTTCTCACATGTTTGACCATTCGTCTTACGGAGTCACCTAGTGCAG” the value was 48400 fluorescence intensity (a.u.).
